Measurements reported in PubChem BioAssay AID1259266 (Sanger Institute, 2017).
The deposit covers 794 reagents; shown is a random part of them. Over the whole deposit, 16 (2%) were called active. 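Calls reflect knock-down alone, not drug synergy; viability seems capped at 1 and z-scores at 0.585.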 Further read-outs or replicates are left out here. No sequences are given here. The record does not give: the amount of reagent, the time to read-out.

Screen: 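Find knock-downs that kill LS123 cells or act with anchor drugs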 (primary screen)
Cells: LS123 human colorectal cancer cells
Knock-down reagent: siRNA pool against human genes
Conditions: anchor drugs BYL719 (1 µM), cetuximab (5 µg/ml) or trametinib (10 nM), each chosen to barely slow growth alone; DMSO vehicle as the drug-free arm
Detection: 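Replicate-averaged viability scaled to non-targeting pools, robust z-score for siRNA alone, and a synergy score per anchor drug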
Reading the numbers: robust z-score, knock-down alone: higher = more cells surviving after knock-down; viability, knock-down alone: higher = more viable cells; synergy score with trametinib and synergy score with BYL719: higher = stronger synthetic lethality with drug
Rule for the call: 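a knock-down counts as essential if its z-score without drug is under -3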
Calls: active = essential (knock-down alone cuts viability); inactive = no change

gene	robust z-score, knock-down alone	viability, knock-down alone (fraction of control)	synergy score with trametinib	synergy score with BYL719	outcome
MYH10 (myosin heavy chain 10)	0.585	1	-0.0165	-0.0929	inactive
ERBB4 (erb-b2 receptor tyrosine kinase 4)	0.585	1	-0.121	-0.0641	inactive
CDC73 (cell division cycle 73)	-1.91	0.852	-0.127	-0.0858	inactive
TSSK4 (testis specific serine kinase 4)	0.585	1	-0.076	-0.05	inactive
AMER1 (APC membrane recruitment protein 1)	0.585	1	-0.108	-0.158	inactive
EIF2AK4 (eukaryotic translation initiation factor 2 alpha kinase 4)	0.409	0.99	-0.102	-0.0753	inactive
BMX (BMX non-receptor tyrosine kinase)	0.585	1	-0.184	-0.0542	inactive
STRADA (STE20 related adaptor alpha)	0.585	1	-0.128	-0.149	inactive
PFKFB4 (6-phosphofructo-2-kinase/fructose-2,6-biphosphatase 4)	0.27	0.981	0.0169	-0.0893	inactive
STRADB (STE20 related adaptor beta)	0.585	1	-0.0162	-0.0786	inactive
RTN4 (reticulon 4)	0.334	0.985	-0.0718	0.0123	inactive
MECOM (MDS1 and EVI1 complex locus)	0.585	1	-0.165	-0.159	inactive
CLK3 (CDC like kinase 3)	-0.418	0.94	-0.0792	0.0256	inactive
MTOR (mechanistic target of rapamycin kinase)	0.585	1	-0.00877	-0.06	inactive
STK33 (serine/threonine kinase 33)	0.585	1	0.0244	-0.00243	inactive
KRAS (KRas proto-oncogene, GTPase)	0.376	0.988	0.0192	-0.0471	inactive
VRK3 (VRK serine/threonine kinase 3)	0.585	1	-0.0661	-0.111	inactive

Next part, starting with the last 2 of the part before.
gene	robust z-score, knock-down alone	viability, knock-down alone (fraction of control)	synergy score with trametinib	synergy score with BYL719	outcome
KRAS (KRas proto-oncogene, GTPase)	0.376	0.988	0.0192	-0.0471	inactive
VRK3 (VRK serine/threonine kinase 3)	0.585	1	-0.0661	-0.111	inactive
MST1R (macrophage stimulating 1 receptor)	-0.735	0.922	0.0378	0.0425	inactive
PIK3R3 (phosphoinositide-3-kinase regulatory subunit 3)	0.585	1	-0.186	-0.0853	inactive
MAP3K14 (mitogen-activated protein kinase kinase kinase 14)	0.585	1	-0.0589	-0.0992	inactive
DGUOK (deoxyguanosine kinase)	-1.58	0.871	-0.0902	-0.148	inactive
RPS6KB2 (ribosomal protein S6 kinase B2)	0.456	0.992	-0.078	-0.0856	inactive
GUCY2C (guanylate cyclase 2C)	0.585	1	-0.0519	-0.0428	inactive
PTPN11 (protein tyrosine phosphatase non-receptor type 11)	0.585	1	-0.186	-0.159	inactive
PAPSS1 (3'-phosphoadenosine 5'-phosphosulfate synthase 1)	0.585	1	-0.179	-0.159	inactive
TPD52L3 (TPD52 like 3)	0.585	1	0.00675	-0.0526	inactive
GUCY2D (guanylate cyclase 2D, retinal)	-3.31	0.769	-0.0355	-0.0942	active
NEK11 (NIMA related kinase 11)	-1.23	0.892	-0.0797	-0.126	inactive
BRSK2 (BR serine/threonine kinase 2)	0.585	1	-0.126	-0.0903	inactive
PRKCSH (PRKCSH beta subunit of glucosidase II)	0.585	1	-0.0669	-0.123	inactive
CAMK4 (calcium/calmodulin dependent protein kinase IV)	0.585	1	-0.178	-0.129	inactive
PLK4 (polo like kinase 4)	-0.211	0.953	-0.0603	-0.0054	inactive
SRPK2 (SRSF protein kinase 2)	0.585	1	-0.126	-0.159	inactive
HIPK4 (homeodomain interacting protein kinase 4)	0.585	1	-0.115	-0.159	inactive
